Test results reported in the supplement of paper PMC4683952.
The list shows a part of the results. Cut-off read from the data, not from the text of the source: active = 2 or more and inactive = the rest. Repeats in this data set agree poorly, so a single value says little.

tested on: Lgr5 (MarsCy1-Lgr5-EGFP, U2OS); test: cell-surface Lgr5 expression (SCi1 fluorescence, background-subtracted) relative to WT DMSO (fold of DMSO control); higher = more Lgr5 at the plasma membrane; settings: U2OS MarsCy1-Lgr5-EGFP stable; treatment time: overnight; library: ActiProbe-5K (TimTec); 25 µM

Row | Structure (SMILES) | cell-surface Lgr5 expression
1 | OCC(O)CN1CCc2ccccc21 (stereo not drawn) | inactive: 1.25
2 | CN(C)c1ccc(/C=C\C=N\NC2=NS(=O)(=O)c3ccccc32)cc1 | inactive: 0.777
3 | Cc1cc(C)n(CC(=O)NN)c(=O)c1C#N | inactive: 1.27
4 | CCCCC(CC)C(=O)NC(C)COC (stereo not drawn) | inactive: 0.992
5 | OC1(C(F)(F)F)Oc2ccccc2-c2oncc21 (stereo not drawn) | inactive: 0.913
6 | CC1(C)CC(N2CCC(=O)NC2=S)CC(C)(C)N1 | inactive: 1.03
7 | COc1cc2c(cc1NS(=O)(=O)c1ccc(OC)c3ccccc13)oc1ccccc12 | inactive: 1.09
8 | O=[N+]([O-])c1cc2cccnc2c2ncccc12 | inactive: 0.363
9 | CCn1nccc1C(=O)NC(Cn1cccn1)C(C)(C)C (stereo not drawn) | inactive: 1.28
10 | O=C(N/N=C\c1ccco1)N/N=C/c1ccco1 | inactive: 1.13
11 | Fc1cccc(C2CCCN2)c1 (stereo not drawn) | inactive: 1.28
12 | C=CCN(CC=C)S(=O)(=O)c1ccc(OC)c2ncccc12 | inactive: 0.892
13 | Cc1ccc(C(C2C(=O)CC(C)(C)CC2=O)C2C(=O)CC(C)(C)CC2=O)s1 | inactive: 1.46
14 | COc1cc([N+](=O)[O-])c(OC)cc1Cl | inactive: 1.4
15 | Fc1ccc(/C=N/n2c(S)nnc2-c2ccncc2)cc1 | inactive: 0.76
16 | Fc1ccc(N2CCN(Cn3cnc4ccccc43)CC2)cc1 | inactive: 1.15
17 | NCC(c1cccs1)N1CCOCC1 (stereo not drawn) | inactive: 1.28
18 | C[N+](CCC#N)(CCC#N)Cc1ccccc1.[Cl-] | inactive: 1.39
19 | Cc1cc(-c2nnc3sc(Cc4cccs4)nn23)[nH]n1 | inactive: 1.28
20 | O=S(=O)(Nc1ccc(Br)cc1)N1CCCC1 | inactive: 1.06
21 | Sc1nc2cc(Cl)ccc2s1 | inactive: 1.08
22 | Nc1ccc2c(c1)COc1ccccc1O2 | inactive: 1.1

Row | Structure (SMILES) | cell-surface Lgr5 expression
23 | Cc1cc(=O)n2c3c(cc(S(=O)(=O)NC4CC4)cc13)CC2 | inactive: 1.18
24 | COc1ccc(C2C3CCC=C3C(C#N)=C(N)C2(C#N)C#N)c(OC)c1 (stereo not drawn) | inactive: 1.2
25 | CCCCS(=O)(=O)/C=C/C1C2C=CC(C2)C1S(=O)(=O)CCCC (stereo not drawn) | inactive: 1.13
26 | CCSc1nc2[nH]c(=O)cc(O)c2s1 | inactive: 1.17
27 | COc1ccc2c(c1)N(C)/C(=C1/OC(=S)N(C)C1=O)S2 | inactive: 1.07
28 | CCCCCCCCN1CNC(=S)NC1 | inactive: 1.21
29 | COCCOCCOCCC(=O)NC1CC2CCC1(C)C2(C)C (stereo not drawn) | inactive: 0.928
30 | Cc1[nH]nc2c1C(c1ccc(Br)s1)C(C#N)=C(N)O2 (stereo not drawn) | active: 2.54
31 | CCOC(=O)CN1C(=O)S/C(=C/c2ccc(Cl)s2)C1=O | inactive: 1.17
32 | CSc1nc2ccc(S(=O)(=O)N3CCc4ccccc43)cc2s1 | inactive: 1
33 | CSc1ccc(/C=C2\CNCC3=C2OC(N)=C(C#N)C3c2ccc(SC)cc2)cc1 (stereo not drawn) | inactive: 1.66
34 | Cc1n[nH]c2c1C(c1ccoc1)C(C#N)=C(N)O2 (stereo not drawn) | inactive: 1.07
35 | CC(C)n1ncc(C(N)=O)c1N | inactive: 1.02
36 | NN1C(=O)CSC1=S | inactive: 1.39
37 | Cn1cc(CNC(=O)c2c(NC(=O)CCn3cc(Cl)c([N+](=O)[O-])n3)cnn2C)cn1 | inactive: 1.26
38 | Nc1nc2cc3nc(N)sc3cc2s1 | inactive: 1.34
39 | O=C(Nc1nnn[nH]1)C1CCCCC1 | inactive: 1.18
40 | Cc1ccc2c(c1)/C(=C/c1ccc(Br)cc1)c1cccnc1-2 | inactive: 1.03
41 | Nc1nc(CSc2ccccn2)nc(Nc2ccccc2)n1 | inactive: 1.44
42 | N#Cc1ccc(C2Oc3ccccc3C3CC(c4ccccc4)=NN32)cc1 (stereo not drawn) | inactive: 0.836
43 | COC1OC(COC(C)=O)C(OC(C)=O)C(C#N)(C#N)C1OC(C)=O (stereo not drawn) | inactive: 1.7
44 | CCOC(=O)c1nnn(-c2nc(N3CCCC3)nc(N3CCCC3)n2)c1C | inactive: 1.17

By substructure, the entries above containing fluorine.
Row | Structure (SMILES) | cell-surface Lgr5 expression
5 | OC1(C(F)(F)F)Oc2ccccc2-c2oncc21 (stereo not drawn) | inactive: 0.913
11 | Fc1cccc(C2CCCN2)c1 (stereo not drawn) | inactive: 1.28
15 | Fc1ccc(/C=N/n2c(S)nnc2-c2ccncc2)cc1 | inactive: 0.76
16 | Fc1ccc(N2CCN(Cn3cnc4ccccc43)CC2)cc1 | inactive: 1.15

(further entries)

Row | Structure (SMILES) | cell-surface Lgr5 expression
45 | Cc1sc(C2C(C#N)=C(N)SC(N)=C2C#N)cc1Br | inactive: 1
46 | Nc1nonc1-c1ccc(F)cc1 | inactive: 1.06
47 | O=C(Cn1nc([N+](=O)[O-])nc1Br)NC1CCCCC1 | inactive: 1.65
48 | Cl.NNc1ccc2[nH]c(=O)[nH]c2c1 | inactive: 0.961
49 | COc1ccc2nc(N)sc2c1 | inactive: 1.23
50 | Cn1c(=O)[nH]c2c(Br)nccc21 | inactive: 1.27
51 | O/N=C(Cl)/C(=N\O)c1ccccc1 | inactive: 1.23
52 | O=C1C(N(CO)C(=O)NCO)N(CO)C(=O)N1CO (stereo not drawn) | inactive: 1.05
53 | O=C([O-])c1cc(-c2ccc3c(c2)OCO3)nc2ccc(Br)cc12 | inactive: 1.16
54 | O=c1ccoc2c(Br)cc(Cl)cc12 | inactive: 1.37
55 | Clc1ccc(Nc2nc3nonc3nc2Nc2ccc(Cl)cc2)cc1 | inactive: 1.04
56 | CC(=O)Nc1nc(=O)c2ncn(C(C)=O)c2[nH]1 | inactive: 1.49
57 | CCOC(=O)c1sc(NC(C)=O)c(C#N)c1C | inactive: 1.42
58 | O=[N+]([O-])c1ccc(NC2OC(CO)C(O)C2O)cc1 (stereo not drawn) | inactive: 1.06
59 | CC1C2CC(C(S(=O)(=O)N3CCOCC3)/C2=N/O)C1(C)C (stereo not drawn) | inactive: 1.4
60 | c1ccc2[nH]c(-c3cscn3)nc2c1 | inactive: 1.06
61 | CCn1cc(S(=O)(=O)NCc2c(Br)cnn2CC)c(C)n1 | inactive: 1.22
62 | FC(F)C(F)(F)Oc1ccc(CSc2nc3cc(Cl)cc(Cl)c3o2)cc1 | inactive: 1.23
63 | CCCCN(CCCC)c1nc2c([nH]1)c(=O)[nH]c(=O)n2C | inactive: 1.25
64 | S=C1NC2=C(CCc3ccccc32)C(c2ccccc2Cl)N1 (stereo not drawn) | inactive: 1.31
65 | Cc1cccn2c(=O)c(/C=C3/SC(=S)N(CC4CCCO4)C3=O)c(N3CCCC3)nc12 (stereo not drawn) | inactive: 1.16
66 | CC1CCN(c2nc3c(=O)[nH]cnc3n2C2OC(CO)C(O)C2O)CC1 (stereo not drawn) | inactive: 0.971

Row | Structure (SMILES) | cell-surface Lgr5 expression
67 | S=C(c1cccs1)N1CCCC1 | inactive: 0.971
68 | CC(Nc1nc(F)cc(=O)[nH]1)C(=O)O (stereo not drawn) | inactive: 1.04
69 | O=C(NC1CCCCC1NC(=O)c1ccco1)c1ccco1 (stereo not drawn) | inactive: 1.19
70 | C(/C#N)(C#N)=C/Nc1cc(Cl)c(cc1)F | inactive: 0.827
71 | O=C1NC(=O)/C(=C/c2ccc3c(c2)OCO3)S1 | inactive: 1.09
72 | Cn1cccc1/C=N/n1c(S)nnc1-c1ccco1 | inactive: 1.29
73 | O=[N+]([O-])c1cc(C(F)(F)F)cc2c1Oc1ccccc1O2 | inactive: 1.2
74 | Oc1ccc(-c2cnc3cc(F)c(F)cc3n2)c(O)c1O | inactive: 0.688
75 | COc1cc(C(c2cc3c(cc2O)OCO3)N2CCCC2)cc(OC)c1OC (stereo not drawn) | inactive: 1.37
76 | CCCCCCCCCCn1c(SCCCC)nc2c1c(=O)[nH]c(=O)n2C | inactive: 1.25
77 | c1(/c(nc2ccccc2nc1C)C)=N\OCc1cc(F)ccc1 | inactive: 1.18
78 | Fc1ccc(Nc2nc3nonc3nc2Nc2ccc(F)cc2)cc1 | inactive: 1.23
79 | Clc1ccc(-c2nc3ccc4ccccc4c3c3c2CCC3)c(Cl)c1 | inactive: 0.712
80 | Cc1ccc(S(=O)(=O)c2no[n+]([O-])c2S(=O)(=O)c2ccc(C)cc2)cc1 | inactive: 0.941
81 | CN1/C(=C/C(=S)C(C)(C)C)Sc2ccccc21 | inactive: 0.918
82 | CCOc1ncnc2[nH]cnc12 | inactive: 1.15
83 | Nc1nonc1C(=O)N/N=C\c1ccco1 | inactive: 1.09
84 | Nc1nonc1-c1nc2ccccc2n1Cc1nnn[nH]1 | inactive: 1.39
85 | CCOC(=O)C1=C(C)NC(=S)NC1c1ccc(C)s1 (stereo not drawn) | inactive: 1.22
86 | Cc1nnc(SCc2nc(N)nc(N3CCOCC3)n2)s1 | inactive: 1.03
87 | CS(=O)(=O)c1ccc(Cl)cc1 | inactive: 1.52
88 | Cc1[nH]nc2c1C(c1ccco1)CC(c1ccco1)=C2 (stereo not drawn) | inactive: 0.815

Row | Structure (SMILES) | cell-surface Lgr5 expression
89 | O=C1C2C3C=CC(C3)C2C(=O)N1c1ccc2c(c1)OCCO2 (stereo not drawn) | inactive: 0.987
90 | CS(=O)(=O)Nc1cc(Cl)ccc1Cl | inactive: 0.954
91 | COc1ccc(C2CC3(OCCO3)C3(CCCCC3)O2)cc1 (stereo not drawn) | inactive: 1.51
92 | Nc1nc(-c2cccs2)cs1 | inactive: 1.16
93 | [N+](c1c(N\N=C2/CCCC2)cccc1)([O-])=O | inactive: 0.848
94 | COC(=O)c1cc(=O)n2cccnc2n1 | inactive: 1.45
95 | Nc1nnnn1NCc1ccco1 | inactive: 1.1
96 | O=C(NC12CC3CC(CC(C3)C1)C2)c1cccs1 | inactive: 1.23
97 | OC(C#CC1(O)CCCCC1)c1ccco1 (stereo not drawn) | inactive: 1.24
98 | Brc1ccc(-c2noc(-c3ccc4c(c3)OCO4)n2)o1 | inactive: 1.1
99 | Cn1c(=O)c2c(ncn2CC(=O)N/N=C/c2ccco2)n(C)c1=O | inactive: 1.16
100 | Cc1nn(C)cc1-c1nnc(N)s1 | inactive: 1.08
101 | Oc1nsnc1N1CCOCC1 | inactive: 1.42
102 | CCOC(=O)C1=C(C)NC(=O)NC1c1cc(Br)c(Br)o1 (stereo not drawn) | inactive: 1.16
103 | O=c1c(-c2ccccc2)c2sc3ccccc3nc-2c2ccccc12 | inactive: 1.33
104 | Cc1n(CC(O)COc2ccccc2)c2ccccc2[n+]1C (stereo not drawn) | inactive: 1.11
105 | O=[N+]([O-])c1ccc(O)c(/C=N\c2nnc3n(/N=C/c4cc([N+](=O)[O-])ccc4O)cnn23)c1 | inactive: 1.19
106 | N#CC1=C(N)C(C#N)(C#N)C(c2ccco2)C2=C1CCCC2 (stereo not drawn) | inactive: 0.85
107 | O=c1[nH]c(=O)c2c(Cl)cc(Cl)cc2[nH]1 | inactive: 0.937
108 | Cc1ccc(/C=C(/C#N)C(N)=S)s1 | inactive: 1.55
